Values joined by “and” are separate entries in the source; they are usually repeats but may differ in a detail not shown here. Equal entries are not always repeated. Among all 300,000 compounds or so, about 5,400 (1.8%) were called active. The inconclusive results got no clear call from the source; some entries with a clear call stand among them for comparison. Calls follow the shape of the full dose curve; tested in HEK293 cells. Where the call is inconclusive, the potency comes from a doubtful curve fit.
Experiment: qHTS for inhibitors of binding or entry into cells for Marburg Virus
Conditions: Marburg virus pseudotyped entry inhibition, cell reporter; activity change, negative = inhibition: at 37.8 µM (top of the series) unless noted
In the case of `O=C(CSc1nnc(C2CCCCC2)o1)N1CCCCC1`, the “activity change, negative = inhibition” value is reported as inactive: 0.0065%. For `COC(=O)c1c(C)oc2ccc(N(C(=O)Oc3ccccc3)S(=O)(=O)c3ccc(Cl)c([N+](=O)[O-])c3)cc12`, the Potency was inconclusive: 1 µM [inhibitor, partial curve, poor fit]. In the case of `Cc1ccc2cc(CN(CC3CCCO3)C(=S)Nc3ccccc3)c(=O)[nH]c2c1C` (centres undefined), the Potency is reported as inconclusive: 2.24 µM [inhibitor, full curve, poor fit]. In the case of `CC(C)(C)C(=O)Cn1c(=O)n(CCCCCC(=O)NCc2ccccc2Cl)c(=O)c2sccc21`, the Potency is reported as inconclusive: 35.5 µM [inhibitor, partial curve, poor fit]. In the case of `Cc1c(CCO)c(=O)n(C)n1C(=O)c1ccc(Cl)cc1`, the Potency is reported as inconclusive: 16.4 µM [activator, partial curve]. In the case of `OCCOCCOc1ccc(-c2nn[nH]n2)cc1`, the “activity change, negative = inhibition” value is reported as inactive: 7.97% [at 46.1 µM]. For `CCCCOCCCNc1ncnc2c1[nH]c1ccccc12`, the Potency was active: 5.17 µM. In the case of `COc1cccc(NC(=O)c2ccccc2-c2ccccc2)c1`, the “activity change, negative = inhibition” value is reported as inactive: 12.3% [at 46.1 µM]. For `O=c1c2c3c(sc2nc2n1CCCC2)CCCCC3`, the Potency was inconclusive: 1.41 µM [activator, full curve]. With `CN1CCN(CC(=O)N/N=C/c2ccc(F)c(F)c2)CC1` the Potency was inconclusive: 35.5 µM [activator, single point]. With `Cc1ccc(NC(=S)NCc2ccc(Cl)cc2)c(C)c1` the Potency was inconclusive: 20 µM [inhibitor, single point]. With `COc1ccc(C)cc1Nc1c2c(nc3ccccc13)CCC2` the Potency was inconclusive: 7.94 µM [inhibitor, partial curve, poor fit] and inconclusive: 891 nM [inhibitor, full curve, poor fit]. In the case of `Cc1ccc(C)c(NC(=S)NNC(=O)c2sccc2C)c1`, the “activity change, negative = inhibition” value is reported as inactive: -1.03%. In the case of `O=C(CCS(=O)(=O)c1ccccc1)N1CCN(c2ccccc2)CC1`, the “activity change, negative = inhibition” value is reported as inactive: -6.94%. For `Nc1[nH]nc2nc(N3CCCC3)nc(-c3ccccc3)c12`, the Potency was inconclusive: 6.51 µM [activator, single point]. With `CC(=O)Nc1ccc(S(=O)(=O)NCC(=O)NC(C)c2ccc(S(N)(=O)=O)cc2)cc1` (centres undefined) the Potency was inconclusive: 2.82 µM [activator, partial curve, poor fit]. With `Cc1ccc(C(=O)NCCSc2snnc2C)cc1` the Potency was inconclusive: 0.355 µM [activator, full curve, poor fit]. In the case of `OCc1cn(-c2ccccc2)nc1-c1ccc2c(c1)OCCO2`, the Potency is reported as inconclusive: 22.4 µM [inhibitor, single point]. For `COc1ccccc1C1=NOC(COC(=O)c2ccc(Br)cc2)C1` (centres undefined), the “activity change, negative = inhibition” value was inactive: 9.64%.

From PubChem BioAssay AID540276 (National Center for Advancing Translational Sciences (NCATS), 2011)
% is scaled to controls: 0 for no effect and ±100 for the full control effect; potency is read from the fitted curve at half-maximal effect.
